Values from PubChem BioAssay AID504744 (Drosophila RNAi Screening Center, 2011)

Screen: 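Uncover factors, including feedback loops, that control dAkt activation in fly cells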 (primary screen)
System: Drosophila Kc167 cells
Knock-down reagent: long dsRNA against Drosophila genes, 250 ng dsRNA per well of a 384-well plate
Timing: 3 days of knock-down, then overnight serum-free starvation before stimulation
Treatment: bovine insulin at 387 nM for 10 minutes after 12 h without serum
Measured: 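In-cell antibody fluorescence for phospho-dAkt in each well over DNA-dye signal, with log2 residuals expressed as z-scores adjusted for cell count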
Active means: 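Under insulin, a gene counts as a hit if the average z-score of two replicates lies above 2.5 or below -2.5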
The screen tested about 23,000 reagents; shown is a random part of those with a known target gene and a result. Of all reagents, 98 (0.43%) are marked active. 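Only hit calls are given; the phospho-dAkt signals, z-scores and hit direction were not deposited.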 A plus sign joins genes that one reagent is predicted to hit. Reagent sequences are not shown.

| target | DRSC id | call |
| --- | --- | --- |
| CG9286 | DRSC16467 | inactive |
| Hacd2 (3-hydroxyacyl-CoA dehydratase 2) | DRSC03181 | inactive |
| CG8993 | DRSC08616 | inactive |
| Capr (Caprin) | DRSC10346 | inactive |
| CG12702 | DRSC19487 | inactive |
| CG13471 | DRSC10015 | inactive |
| CG9101 | DRSC20152 | inactive |
| CG3097 | DRSC18275 | inactive |
| CG7054 | DRSC16185 | inactive |
| CG17049 (retired record) | DRSC06650 | inactive |
| CG9316 | DRSC03195 | inactive |
| CG18088 | DRSC02654 | inactive |
| ApepP (Aminopeptidase P) | DRSC01866 | inactive |
| Dhrs4 (Dehydrogenase/reductase 4) | DRSC09773 | inactive |
| Or85c (Odorant receptor 85c) | DRSC16766 | inactive |
| tum (tumbleweed) | DRSC07575 | inactive |
| CG4409 | DRSC06869 | inactive |
| sff (sugar-free frosting) | DRSC10590 | inactive |
| CG30047 | DRSC05340 | inactive |
| dwg (deformed wings) | DRSC18766 | inactive |
| mof (males absent on the first) | DRSC18795 | inactive |
| FucT6 (alpha1,6-fucosyltransferase) | DRSC19848 | inactive |
| synr (sayonara) | DRSC02369 | inactive |
| TwdlC (TweedleC) | DRSC14749 | inactive |
| Inx7 (Innexin 7) | DRSC18784 | inactive |
| Sox102F | DRSC17204 | inactive |
| CG8138 | DRSC16386 | inactive |
| mRpL33 (mitochondrial ribosomal protein L33) | DRSC18319 | inactive |
| yellow-e2 | DRSC15169 | inactive |
| CG31415 | DRSC22409 | inactive |
| Tsp86D (Tetraspanin 86D) | DRSC15607 | inactive |
| COX6CL (Cytochrome c oxidase subunit 6C-like) | DRSC00895 | inactive |
| Cyp4e2 (Cytochrome P450 4e2) | DRSC07371 | inactive |
| CG31041 | DRSC13951 | inactive |
| ci (cubitus interruptus) | DRSC17172 | inactive |
| Drep1 (DNA fragmentation factor-related protein 1) | DRSC07527 | inactive |
| CG32816 | DRSC17337 | inactive |
| CG2202 | DRSC19841 | inactive |
| Rhau (RHAU helicase) | DRSC03200 | inactive |
| CG9673 | DRSC20202 | inactive |
| wfs1 (wolfram syndrome 1) | DRSC15676 | inactive |
| CG4836 | DRSC15659 | inactive |
| CycJ (Cyclin J) | DRSC08653 | inactive |
| CG30121 (retired record) | DRSC21481 | inactive |
| AMPdeam (AMP deaminase) | DRSC18996 | inactive |
| AMPdeam (AMP deaminase) | DRSC19366 | active |
| AMPdeam (AMP deaminase) | DRSC19368 | inactive |
| AMPdeam (AMP deaminase) | DRSC19727 | inactive |
| tal-1A + tal-2A + tal-AA + 1 more | DRSC12992 | inactive |
| CG7492 | DRSC10855 | inactive |
| fd3F + CG42499 (retired record) | DRSC18160 | inactive |
| fd3F + CG42499 (retired record) | DRSC18161 | inactive |
| CG6793 | DRSC10714 | inactive |
| bin3 (bicoid-interacting protein 3) | DRSC04919 | inactive |
| CG12129 | DRSC06105 | inactive |
| GatB (Glutamyl-tRNA amidotransferase, subunit B) | DRSC15807 | inactive |
| Scgdelta (Sarcoglycan delta) | DRSC18544 | inactive |
| Su(var)2-10 (Suppressor of variegation 2-10) | DRSC07721 | inactive |
| Pits (Protein interacting with Ttk69 and Sin3A) | DRSC19385 | inactive |
| Pits (Protein interacting with Ttk69 and Sin3A) | DRSC19812 | inactive |
| Rpn2 (Regulatory particle non-ATPase 2) | DRSC16839 | inactive |
| Cpr62Bc (Cuticular protein 62Bc) | DRSC08545 | inactive |
| CG10914 | DRSC06010 | inactive |
| pyr (pyramus) | DRSC06319 | inactive |
| pyr (pyramus) | DRSC22520 | inactive |
| CG13293 | DRSC09967 | inactive |
| CG10051 | DRSC05959 | inactive |
| Ekar (Eye-enriched kainate receptor) | DRSC17161 | inactive |
| Pde1c (Phosphodiesterase 1c) | DRSC02421 | inactive |
| Pde1c (Phosphodiesterase 1c) | DRSC02422 | inactive |
| Pde1c (Phosphodiesterase 1c) | DRSC02423 | inactive |
| Pde1c (Phosphodiesterase 1c) | DRSC02424 | inactive |
| Pde1c (Phosphodiesterase 1c) | DRSC02425 | inactive |
| Pde1c (Phosphodiesterase 1c) | DRSC02426 | inactive |
| inaF-C | DRSC18902 | inactive |
| sced (scrambled) | DRSC04990 | inactive |
| Cpr64Ab (Cuticular protein 64Ab) | DRSC08461 | inactive |
| mldr (mulder) | DRSC18100 | inactive |
| CG13026 | DRSC09906 | inactive |
| Atac3 (Ada2a-containing complex component 3) | DRSC08579 | inactive |
| CG15120 | DRSC06542 | inactive |
| fmt (fiery mountain) | DRSC09717 | inactive |
| gprs | DRSC06761 | inactive |
| CG7990 | DRSC19296 | inactive |
| CG7990 | DRSC20069 | inactive |
| CG30325 | DRSC05685 | inactive |
| CG34331 | DRSC20679 | inactive |
| CG11267 | DRSC09833 | inactive |
| BORCS7 + CG13430 | DRSC06392 | inactive |
| BORCS7 + CG13430 | DRSC06707 | inactive |
| CG1737 | DRSC19771 | inactive |
| Mos (Mos oncogene) | DRSC07258 | inactive |
| CG18744 | DRSC15381 | inactive |
| tyn (trynity) | DRSC20652 | inactive |
| amon (amontillado) | DRSC13784 | inactive |
| amon (amontillado) | DRSC16900 | inactive |
| zf30C (zinc finger protein 30C) | DRSC03641 | inactive |
| CG42539 (retired record) | DRSC13691 | inactive |
| CG42539 (retired record) | DRSC21639 | inactive |
| Cyt-c-p (Cytochrome c proximal) | DRSC03310 | inactive |
| CG33969 + fbl | DRSC11886 | inactive |
| l(1)G0289 (lethal (1) G0289) | DRSC18215 | inactive |
| tipE (temperature-induced paralytic E) | DRSC08738 | inactive |
| kermit | DRSC06074 | inactive |
| DCTN1-p150 (Dynactin 1, p150 subunit) | DRSC11175 | inactive |
| CG42735 (retired record) | DRSC00921 | inactive |
| CG13226 | DRSC06346 | inactive |
